# Test results: publication PMC5362243, “A rare IL33 loss-of-function mutation reduces blood eosinophil counts and protects from asthma” (PLoS Genetics, 2017)
# Protein sequences, listed by entry. Tags and fused reporters are not part of them. Residues count along the entry.
# UniProt Q01638, residues 19-328: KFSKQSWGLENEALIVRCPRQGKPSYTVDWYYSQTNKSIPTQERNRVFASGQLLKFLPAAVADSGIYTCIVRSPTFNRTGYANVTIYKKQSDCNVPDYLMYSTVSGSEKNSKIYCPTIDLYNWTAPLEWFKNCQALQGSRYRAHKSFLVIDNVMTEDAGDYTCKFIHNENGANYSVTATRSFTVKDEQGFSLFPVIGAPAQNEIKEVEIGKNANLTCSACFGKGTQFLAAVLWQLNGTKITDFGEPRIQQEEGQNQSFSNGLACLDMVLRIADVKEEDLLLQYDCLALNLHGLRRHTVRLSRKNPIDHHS
# These are yes or no findings as the source states them, for the method shown.
# B1: IL-33 (95-204), truncated mutant (rs146597587-C-associated form) (domain or fragment, UniProt O95760-1 95-204)
# chain: AFGISGVQKYTRALHDSSITGISPITEYLASLSTYNDQSITFALEDESYEIYVEDLKKDEKKDKVLLSYYESQHPSNESGDGVDGKMLMVTLSPTKDFWLHANNKEHSVE
# Biological target: Human ST2-Flag-His (recombinant IL-33R, extracellular domain) (human) (UniProt Q01638)
# Experiment: SPR; Biacore T200, CM5 chip; human ST2-Flag-His captured by amine-coupled penta-His antibody; IL-33 variants injected at 200 nM (180 s association, 300 s dissociation); 25°C, HBS-P (10 mM HEPES pH 7.4, 150 mM NaCl, 0.05% P20); single replicate; both purified
binder,measurement,value
B1,binding,no binding (tested: 200 nM)
